System: patients scheduled for elective percutaneous coronary intervention (PCI) with high-risk features for periprocedural myocardial infarction
Assay: Randomized placebo-controlled study of P5P in patients undergoing elective PCI: recovery, length of hospitalization, time to discharge
Assay type: in vivo, human
Text: Selection of Study Population—The patients selected for this trial were patients scheduled for elective percutaneous coronary intervention (PCI) with high-risk features for periprocedural myocardial infarction, and who satisfied specific inclusion criteria as described in the next section. Patients to be included in this study were of either sex, >18 years of age and admitted to hospital for elective, single-vessel, non-urgent PCI. Patients must have presented with at least one of the following high-risk clinical criteria: • ACS with last chest pain episode (or ischemic equivalent) within 48 hours, • recent myocardial infarction (≦7 days) with return of cardiac markers, (CK, CK-MB, and troponin) to below upper normal limits, • angiographic evidence of reduced epicardial flow (TIMI<3), • angiographic evidence of thrombus, • left ventricular ejection fraction≦30%, or • saphenous vein graft lesion. […]
Treatments Administered—Following baseline laboratory assessments, patients were randomized to placebo or P5P (a vitamin B6 related compound), administered as a 10 mg/kg oral dose, at least (4) hours prior to PCI, followed by 10 mg/kg orally divided in two daily doses for fourteen (14) days. […] The date, time and dosing of the first and last study drug dosing was recorded in the CRF. […]

SMILES: Cc1ncc(COP(=O)(O)O)c(C=O)c1O [P5P, pyridoxal-5′-phosphate]
- Treated more quickly than placebo (fold) (9.4 hours versus 31 hours for placebo): 3 times
- Time in which patients were treated (patients randomized to P5P, placebo 31 hours): 9.4 h

Source: patent US20080214504A1, “Vitamin B6 Related Compounds and Methods for Recovery From Trauma” (MEDICURE INTERNATIONAL INC., priority 2004, published 2008)
